Library compounds against nucleic acid targets

Source: the ROBIN nucleic acid binder screens (doi:10.1002/anie.202211358).

Targets, with sequences 5′ to 3′:
SAM-II: SAM-II riboswitch RNA pseudoknot, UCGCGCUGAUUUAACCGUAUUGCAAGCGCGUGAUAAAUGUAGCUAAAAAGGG. About 200 hits among about 21,000 compounds.
TPP: TPP riboswitch RNA three-way junction, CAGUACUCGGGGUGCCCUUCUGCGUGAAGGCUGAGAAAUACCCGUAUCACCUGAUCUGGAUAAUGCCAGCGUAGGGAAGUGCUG. About 160 hits among about 24,000 compounds.

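Compounds were printed on reactive glass slides in duplicate spots, a dye-labelled oligonucleotide was laid over them, and the fluorescence left after washing was read. For the PreQ1, TPP and SAM-II riboswitches the laboratory earlier reported (doi:10.1038/s41467-019-09493-3) 1 µM RNA, 2 h, and a rule that included a mean Z-score above 3 (spot signal-to-noise against the whole library), a score well above that on a control array, and duplicate spots agreeing (coefficient of variation under 100). The data file gives only the calls; its cut-offs may differ, and compounds hitting several targets are kept. The calls come from the array alone, and fixing a compound to the slide can hide its binding.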
A compound is marked hit if it was called a hit and no hit if it was screened but was not.
This is an unselected part of the compounds tested.
A target missing from an entry has no call listed here.

Calls for O=C(c1ccccc1N1CCOCC1)N1[C@H]2CCNC[C@@H]1CC2 are SAM-II: no hit; TPP: no hit.
Calls for O=C(NCCC1CN(Cc2ccc(Cl)nc2)CCO1)C1CNC1 (stereo not given) are SAM-II: no hit; TPP: no hit.
Calls for Clc1ccc(Nc2c(-c3ccccn3)nc3cnccn23)cc1 are SAM-II: no hit; TPP: no hit.
Calls for Cc1ccc(NC2=C(C(N)=O)S(=O)(=O)c3ccccc32)cc1C are TPP: no hit.
Calls for Nc1ccc(Cn2cnc(-c3nc(-c4ccc(F)cc4)no3)c2)cc1 are SAM-II: no hit; TPP: no hit.
Calls for O=C(NCc1ccccn1)c1ccc(C2CCCNC2)cc1 (stereo not given) are SAM-II: no hit; TPP: no hit.
Calls for COc1cc(C2ON=C(CO)C2C)cc2c1OCO2 (stereo not given) are SAM-II: no hit; TPP: no hit.
Calls for c1ccc(-c2csc(Nc3cccnc3)n2)cc1 are SAM-II: no hit; TPP: no hit.
Calls for CCCCCCCCS(=O)(=O)CCN are SAM-II: no hit; TPP: no hit.
Calls for CC1=C(C(=O)OC(C)(C)C)C(c2cccs2)C(C#N)=C(N)O1 (stereo not given) are SAM-II: no hit; TPP: no hit.
Calls for Nc1c(NCCN2CCCCC2)c2ccccc2oc1=O are SAM-II: no hit; TPP: no hit.
Calls for Br.O=C(O)c1ccc(C(=O)CNc2ccc(I)cc2)cc1 are SAM-II: no hit; TPP: no hit.
Calls for O=C(O)[C@@]12CN(CCO)C[C@@H]1CN(Cc1ccc(F)cc1Cl)C2 are SAM-II: no hit; TPP: no hit.
Calls for Cc1nc2cc(Cl)c(Cl)cc2n1CCCO are SAM-II: hit; TPP: hit.
Calls for COc1cccc(-c2n[nH]cc2C(=O)N(CC=Cc2ccccc2)CCO)c1 are SAM-II: no hit; TPP: no hit.
Calls for CC(C)CNc1oc(-c2ccc(S(=O)(=O)N3CCCC3)cc2)nc1C#N are TPP: no hit.
Calls for COc1ccc(-c2cc(C(=O)NN=C(C)c3ccc(N)cc3)[nH]n2)cc1 are SAM-II: no hit; TPP: no hit.
Calls for CCC(=C(c1ccccc1)c1ccc(OCCN(C)C)cc1)c1ccccc1 are SAM-II: no hit; TPP: no hit.
Calls for Cl.OC(CN1CC=C(C=Cc2ccc(Br)cc2)CC1)c1ccccc1 (stereo not given) are SAM-II: no hit; TPP: no hit.
Calls for CC12CCC(C(NC(=S)NN)C1=O)C2(C)C (stereo not given) are SAM-II: no hit; TPP: no hit.
Calls for CCN(CCCCCCN)c1ccc2c(=O)[nH][nH]c(=O)c2c1 are SAM-II: no hit; TPP: no hit.
Calls for CC(C)c1nc(CN(C)C(=O)[C@H](N)Cc2ccc(Cl)cc2)cs1 are SAM-II: no hit; TPP: no hit.
Calls for CC(C)c1ccnc(NCC(O)CN2CCCC2)n1 (stereo not given) are SAM-II: no hit; TPP: no hit.
Calls for Nc1ccc2c(c1)C(=O)NC2=O are SAM-II: no hit; TPP: no hit.
Calls for O=S(=O)(N1CCOCC1)N1CCN(CC(O)COc2ccc3c(c2)CCC3)CC1 (stereo not given) are SAM-II: no hit; TPP: no hit.
Calls for O=c1c(Nc2ccc(F)cc2)c(-c2ccccc2)c1=O are TPP: no hit.
Calls for Cc1ccc(-c2cnc(NCc3cccc(Cl)c3)n2C)cc1 are SAM-II: no hit; TPP: no hit.
Calls for O=C(CSc1nnc(CSc2nc3ccccc3s2)n1-c1ccccc1)NCCCO are SAM-II: no hit; TPP: no hit.
Calls for CC(c1ccccc1)N1CC(=O)C(c2nc3ccccc3s2)=C1N (stereo not given) are TPP: no hit.
Calls for Cn1c(=O)c2c(-c3cccc(Br)c3)n(CCCO)cc2n(C)c1=O are TPP: no hit.
Calls for CCn1nc(C(=O)O)c2c1CCC(NCC(=O)Nc1ccc(C)cc1F)C2 (stereo not given) are SAM-II: no hit; TPP: no hit.
Calls for CCOC(=O)C1CCCN(c2c(NCCN(C)Cc3ccccc3)c(=O)c2=O)C1 (stereo not given) are TPP: no hit.
Calls for CNc1ccc(/N=N/c2cc[n+]([O-])cc2C)cc1C are SAM-II: no hit; TPP: no hit.
Calls for CN(C)c1cc(NC(=O)CNC(C)(C)C)c(O)c2c1C[C@H]1C[C@H]3[C@H](N(C)C)C(=O)C(C(N)=O)=C(O)[C@@]3(O)C(=O)C1=C2O are SAM-II: no hit; TPP: no hit.
Calls for CCOC(=O)c1c(N)sc2c1CCN(C)C2 are SAM-II: no hit; TPP: no hit.
Calls for CN(C)c1cc(-c2ccccc2)nc(N)n1 are SAM-II: no hit; TPP: no hit.
Calls for Nc1ccc(C2=CSC3=NCCN23)cc1 are SAM-II: no hit; TPP: no hit.
Calls for COc1ccc(-c2n[nH]c3c2C2(C(=O)Nc4ccc(Br)cc42)C(C#N)=C(N)O3)cc1OC (stereo not given) are SAM-II: no hit; TPP: no hit.
Calls for c1cnc(N2CCC(NCc3nc(C4CCCCC4)no3)CC2)nc1 are SAM-II: no hit; TPP: no hit.
Calls for OCCOCCNc1ccnc(C(F)(F)F)n1 are SAM-II: no hit; TPP: no hit.
Calls for CCc1nc(C)c(CN2CC[C@@H](c3ccc4ccccc4c3)[C@H](O)C2)[nH]1 are SAM-II: no hit; TPP: no hit.

Repeated from the top, 3 entries:

Compound,SAM-II,TPP
O=C(c1ccccc1N1CCOCC1)N1[C@H]2CCNC[C@@H]1CC2,no hit,no hit
O=C(NCCC1CN(Cc2ccc(Cl)nc2)CCO1)C1CNC1 (stereo not given),no hit,no hit
Clc1ccc(Nc2c(-c3ccccn3)nc3cnccn23)cc1,no hit,no hit